Results are given in words; binding and its absence hold for the method and conditions named. Binding seen in cells or lysates may run through a third protein. Binding can be weak; no strength is given. Each block holds one molecule with its values, some of them ahead of it.
What was measured:
Assay in all cases: co-IP; total intestinal lysates of brackish water-acclimated Indian medaka or fresh water-acclimated Japanese medaka; immunoprecipitation with anti-FXYD12, pre-immune serum (negative control) or anti-NKA α (α5) using the ImmunoCruz IP/WB Optima System; immunoblot for NKA α (100 kDa) or FXYD12 (10 kDa)
[1] = target: T1, Indian medaka (Oryzias dancena) FXYD12 (Oryzias dancena (endogenous in intestine)) (UniProt R4N338)
T1 sequence: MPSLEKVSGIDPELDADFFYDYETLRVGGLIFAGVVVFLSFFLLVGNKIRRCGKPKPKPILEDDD

[2] = target: T2, Japanese medaka (Oryzias latipes) FXYD12 (Oryzias latipes (endogenous in intestine)) (UniProt R4N6V2)
T2 sequence: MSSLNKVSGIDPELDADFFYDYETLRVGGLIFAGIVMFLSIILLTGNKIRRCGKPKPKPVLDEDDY

[3] = target: Indian medaka (Oryzias dancena) Na+/K+-ATPase α-subunit (Oryzias dancena (endogenous in intestine))
[4] = target: Japanese medaka (Oryzias latipes) Na+/K+-ATPase α-subunit (Oryzias latipes (endogenous in intestine))

Molecule: Japanese medaka (Oryzias latipes) Na+/K+-ATPase α-subunit
- binding [2]: binds

B1: Indian medaka (Oryzias dancena) FXYD12 (protein, UniProt R4N338 1-65)
chain: MPSLEKVSGIDPELDADFFYDYETLRVGGLIFAGVVVFLSFFLLVGNKIRRCGKPKPKPILEDDD
- binding [3]: binds

Results, then the molecule that gave them:

- binding [1]: binds
Molecule: Indian medaka (Oryzias dancena) Na+/K+-ATPase α-subunit

- binding [4]: binds
B2: Japanese medaka (Oryzias latipes) FXYD12 (protein, UniProt R4N6V2 1-66)
chain: MSSLNKVSGIDPELDADFFYDYETLRVGGLIFAGIVMFLSIILLTGNKIRRCGKPKPKPVLDEDDY

Reference: PMC6063443
